Four molecules from patent publication US20090036380A1, “Composition And Method For Brain Tumor Therapy” (Yeda Research and Development Co., Ltd., priority 2006, published 2009) can be followed below.

No constants are given. Whether binding was seen depends on the method and setting. Some entries that bind do so weakly or less than the wild type.

Experiment [1] concerns the target T1, Karet PTB domain (RRS bait) (mouse) (UniProt Q8K2Y9).
T1 sequence: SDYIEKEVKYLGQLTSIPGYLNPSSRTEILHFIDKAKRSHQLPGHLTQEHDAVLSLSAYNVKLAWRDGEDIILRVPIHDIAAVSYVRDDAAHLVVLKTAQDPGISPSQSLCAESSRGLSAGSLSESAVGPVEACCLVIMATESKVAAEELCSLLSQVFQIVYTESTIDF
Kind of experiment: RRS screen in yeast, Karet PTB domain against an embryonic mouse brain library.

Experiment [2] deals with full length Karet protein (RRS bait) (mouse) (UniProt Q8K2Y9). Kind of experiment: RRS screen in yeast, whole Karet protein against an embryonic mouse brain library.

B1: Stathmin-like 3, mRNA (protein, mouse, UniProt O70166 1-180, looked up)
chain: MASTVSAYKEKMKELSVLSLICSCFYSQPHPNTIYQYGDMEVKQLDKRASGQSFEVILKSPSDLSPESPVLSSPPKRKDASLEELQKRLEAAEERRKTQEAQVLKQLAERREHEREVLHKALEENNNFSRLAEEKLNYKMELSKEIREAHLAALRERLREKELHAAEVRRNKEQREEMSG
Take B1: in experiment [1], the binding entry is given as “binds”.

B2: Granulin (Grn) (protein, mouse, UniProt P28798 18-589, looked up)
chain: TQCPDGQFCPVACCLDQGGANYSCCNPLLDTWPRITSHHLDGSCQTHGHCPAGYSCLLTVSGTSSCCPFSKGVSCGDGYHCCPQGFHCSADGKSCFQMSDNPLGAVQCPGSQFECPDSATCCIMVDGSWGCCPMPQASCCEDRVHCCPHGASCDLVHTRCVSPTGTHTLLKKFPAQKTNRAVSLPFSVVCPDAKTQCPDDSTCCELPTGKYGCCPMPNAICCSDHLHCCPQDTVCDLIQSKCLSKNYTTDLLTKLPGYPVKEVKCDMEVSCPEGYTCCRLNTGAWGCCPFAKAVCCEDHIHCCPAGFQCHTEKGTCEMGILQVPWMKKVIAPLRLPDPQILKSDTPCDDFTRCPTNNTCCKLNSGDWGCCPIPEAVCCSDNQHCCPQGFTCLAQGYCQKGDTMVAGLEKIPARQTTPLQIGDIGCDQHTSCPVGQTCCPSLKGSWACCQLPHAVCCEDRQHCCPAGYTCNVKARTCEKDVDFIQPPVLLTLGPKVGNVECGEGHFCHDNQTCCKDSAGVWACCPYLKGVCCRDGRHCCPGGFHCSARGTKCLRKKIPRWDMFLRDPVPRPLL
Regarding B2, in experiment [1], the binding entry is reported as “binds”.

B3: Myeloid leukemia factor 2 (Mlf2), transcript variant1, mRNA (protein, mouse, UniProt Q99KX1 1-247, looked up)
chain: MFRFMRDVEPEDPMFLMDPFAIHRQHMSRMLSGGFGYSPFLSITDGNMPATRPASRRMQAGAVSPFGMLGMSGGFMDMFGMMNDMIGNMEHMAAGGNCQTFSSSTVISYSNTGDGAPKVYQETSEMRSAPGGIRETRRTVRDSDSGLEQMSIGHHIRDRAHILQRSRNHRTGDQEERQDYINLDESEAAAFDDEWRRETSRYRQQRPLEFRRHEASVGGGRRAEGPPRLAIQGPEDSPSRQSRRYDW
Consider B3, for which, in experiment [2], the binding result is listed as “binds”.

B4: Prothymosin alpha (protein, mouse, UniProt P26350 1-111, looked up)
chain: MSDAAVDTSSEITTKDLKEKKEVVEEAENGRDAPANGNAQNEENGEQEADNEVDEEEEEGGEEEEEEEEGDGEEEDGDEDEEAEAPTGKRVAEDDEDDDVDTKKQKTEEDD
For the molecule B4, in experiment [1], the binding entry is listed as “binds”.
